# Measurements: PubChem BioAssay AID2551 (National Center for Advancing Translational Sciences (NCATS), 2010)
# The chains behind the UniProt entries cited, without tags or fusion partners. Where a name states a change or a piece, a line headed by the entry shows the natural chain unless it says otherwise.
# UniProt P51450: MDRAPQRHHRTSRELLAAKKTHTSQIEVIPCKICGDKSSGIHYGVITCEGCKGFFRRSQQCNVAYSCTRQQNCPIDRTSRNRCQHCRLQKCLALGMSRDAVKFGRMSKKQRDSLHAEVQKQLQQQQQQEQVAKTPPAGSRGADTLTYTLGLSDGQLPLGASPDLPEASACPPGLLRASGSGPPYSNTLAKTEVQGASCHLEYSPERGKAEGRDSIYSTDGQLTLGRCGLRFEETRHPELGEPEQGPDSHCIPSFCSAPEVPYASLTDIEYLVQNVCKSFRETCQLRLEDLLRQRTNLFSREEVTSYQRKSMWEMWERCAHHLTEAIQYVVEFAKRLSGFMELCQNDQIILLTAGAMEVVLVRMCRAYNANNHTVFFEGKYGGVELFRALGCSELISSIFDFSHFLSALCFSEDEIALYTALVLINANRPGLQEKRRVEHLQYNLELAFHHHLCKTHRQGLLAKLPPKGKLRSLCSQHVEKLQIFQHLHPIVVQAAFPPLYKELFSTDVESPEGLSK
# Where “and” joins values, the source holds several entries; their conditions need not be identical. Equal values may be shown once. The whole screen tested about 310,000 compounds, of which about 17,000 (5.5%) were called active. The shares of active, inactive and inconclusive entries below differ from those in the screen. Calls come from the whole dose curve; as a rule, active = well fitted inhibition curve with a large enough effect; inconclusive = small, poorly fitted or top-dose-only effect, or effect the other way; inactive = no such curve, though single readings can be large or run the other way. A potency beside an inconclusive call is a rough fit, not a confirmed value.
# Target: Nuclear receptor ROR-gamma (Mus musculus) (UniProt P51450)
# Test: qHTS for inhibitors of ROR gamma transcriptional activity; note: nearly all actives have a fitted effect of over 60% in size
# Conditions: Drosophila S2 Gal4-RORgamma UAS-luciferase reporter, 20 h; activity change, negative = inhibition: at 53.6 µM (top of the series)
# In short: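 In this cell-based reporter format, copper sulfate (700 uM final) drives Gal4–ROR gamma fusion expression from a metallothionein promoter in Drosophila Schneider cells; compounds preincubated 1 hr, reporter read after 20 hr at ambient temperature.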
# % is set by controls: 0 for no effect and ±100 for the full control effect; potency is the fitted concentration of half-maximal effect.
Compound,Potency,"activity change, negative = inhibition"
COc1ccc(N2C(=S)N=C(Nc3ccccc3)C23CCCCC3)cc1,"inconclusive: 0.562 µM [inhibitor, full curve]",
CC(C)c1ccccc1OCCNC(=O)c1cccnc1,,inactive: -36.3%
O=C(/C=C/c1ccccc1[N+](=O)[O-])Nc1ccccc1,,inactive: -8.25%
C=CCOc1ccc(C2NC(=O)NC(C)=C2C(=O)OC)cc1 (configuration not stated),,inactive: 18.9%
O=C(COc1ccc(S(=O)(=O)N2CCOCC2)cc1)N1CCN(c2ccccc2)CC1,"inconclusive: 22.4 µM [activator, single point]",
O=C(Nc1ccc(N2CCOCC2)c(Cl)c1)c1cccnc1Cl,"inconclusive: 15.8 µM [activator, partial curve]",
Cc1nn(Cc2c(F)c(F)c(F)c(F)c2F)c(C)c1NC(=O)c1c(-c2ccccc2)nn(-c2ccccc2)c1C,,inactive: -36.7%
Cc1ccccc1-c1ocnc1C(=O)Nc1ccccc1NC(=O)c1ccccn1,active: 2.24 µM,
COC(=O)Cn1c(=O)c2c(nc3n2CCCN3CCc2ccccc2)n(C)c1=O,,inactive: -1.55%
COc1cccc(CN(C)CC(=O)NCc2ccccc2Cl)c1OC,"inconclusive: 0.891 µM [activator, partial curve]",
Cc1cccc(NS(=O)(=O)c2ccc3nc(-c4ccccc4)[nH]c3c2)c1C,,inactive: -0.161% [at 10 µM]
CCOc1ccc(N=Nc2c(=O)[nH]n3c(C)cc(C)nc23)cc1,"inconclusive: 10 µM [inhibitor, partial curve, poor fit]",
CC1CCCC(C)N1/N=C/c1ccc(N(C)C)cc1 (configuration not stated),"inconclusive: 11.2 µM [inhibitor, single point]",
CCCc1cc(=O)[nH]c(SCc2nc3ccc([N+](=O)[O-])cc3[nH]2)n1,"inconclusive: 35.5 µM [inhibitor, single point]",
COc1ccc(S(=O)(=O)NCCc2csc(-c3cccnc3)n2)cc1,,inactive: 19.3%
O=C(Nc1ccc(F)cc1F)c1cccc(C(=O)Nc2ccc(F)cc2F)n1,"inconclusive: 8.91 µM [inhibitor, partial curve]",
CC(C(=O)Nc1ccc(N2CCOCC2)cc1)N1C(=O)c2ccccc2C1=O (configuration not stated),,inactive: -0.904%
O=C(N/N=C\C=C\c1ccc2c(c1)OCO2)C1COc2cc3ccccc3cc2O1 (configuration not stated),active: 7.08 µM,
COC(=O)C1CSC(C(=O)OC)N1C(=O)CN1CCN(c2ccccc2)CC1 (configuration not stated),,inactive: 11.1%
COc1ccc(NC(=O)C/C(C)=N/NC(=O)CCc2ccccc2)c(OC)c1,"inconclusive: 35.5 µM [inhibitor, single point]",
CCn1c(SCC(=O)N2CCCC2)nnc1-c1ccc(N)cc1,"inconclusive: 2.24 µM [activator, partial curve]",
CN(CC(=O)Nc1ccc(F)cc1Cl)Cc1cccs1,,inactive: -44.3%
COc1cccc(C2C(C#N)=C(C)NC3=C2C(=O)CC(C)(C)C3)c1 (configuration not stated),"inconclusive: 17.8 µM [activator, single point]",
Cc1onc(-c2ccccc2Cl)c1C(=O)OCC(=O)Nc1ccc2c(c1)OCO2,"inconclusive: 22.4 µM [activator, single point]",

Compound,Potency,"activity change, negative = inhibition"
Oc1ccc2oc3c(c2c1C=NCc1ccncc1)CCCC3,"inconclusive: 0.178 µM [inhibitor, full curve, poor fit]",
Cc1ccsc1C1Nc2ccc3ncccc3c2C2=C1C(=O)CC(C)(C)C2 (configuration not stated),"inconclusive: 0.708 µM [activator, partial curve, poor fit]",
O=C(O)CCCCCCCCCC(=O)c1cccs1,active: 10 µM,
Oc1ccc2ccccc2c1/C=N/c1nc2c(s1)CCCC2,"inconclusive: 25.1 µM [inhibitor, single point]",
Cc1ccn2c(Nc3ccc4c(c3)OCO4)c(-c3ccccn3)nc2c1,"inconclusive: 7.08 µM [inhibitor, partial curve]",
Cn1c(=O)n(CCCOc2ccc(Br)cc2)c2ccccc21,active: 10 µM,
C#CCOC(=O)c1csc2nnsc12,"inconclusive: 0.398 µM [inhibitor, partial curve, poor fit]",
CC(C)(C)NC(=O)NC(=O)Cn1cc(C(F)(F)F)ccc1=O,,inactive: 32.7%
Fc1ccc2nc3[nH]c4ccccc4c3nc2c1,"inconclusive: 0.447 µM [activator, full curve, poor fit]",
Cc1ccc(SCC(=O)Nc2cccc(-c3nnc(-c4ccco4)o3)c2)cc1,"inconclusive: 12.6 µM [inhibitor, single point]",
COc1ccc([N+](=O)[O-])cc1NC(=O)Cc1ccc(Cl)cc1,"inconclusive: 35.5 µM [activator, single point]",
COc1ccccc1CN1C(=NC(=O)C2CCCCC2)SC2CS(=O)(=O)CC21 (configuration not stated),,inactive: -10.8%
COc1ccc(CNC(=O)c2nc(S(=O)(=O)Cc3ccccc3)ncc2Cl)cc1,active: 5.62 µM,
CCN(CC)c1ccc(NC(=O)COC(=O)CCC(=O)c2ccc(F)cc2)cc1,,inactive: 1.26%
COc1ccccc1NC(=O)Nc1nc(C(C)(C)C)cs1,,inactive: 27.6%
Cc1cccc(N2CCN(C(=O)CCCCCn3c(=S)[nH]c4ccc(N5CCOCC5)cc4c3=O)CC2)c1C,active: 7.08 µM,
Cc1cccc(NC(=S)N(CCN(C)C)C(C)c2ccccn2)c1 (configuration not stated),active: 11.2 µM,
COc1ccc(OCCCn2c(=O)oc3ccccc32)cc1,"inconclusive: 35.5 µM [activator, single point]",
CCC(OC(=O)c1cccs1)C(=O)NCc1ccc(C)cc1 (configuration not stated),,inactive: 30.8%
O=C(Nc1ccc2nc3n(c(=O)c2c1)CCCCC3)C(=O)N1CCN(c2ccc(F)cc2)CC1,,inactive: -1.25%
CC(C)(C)c1cc(C(=O)NN)n(Cc2ccc(Cl)cc2Cl)n1,"inconclusive: 10 µM [inhibitor, partial curve]",
CC(CNc1nc2ccc(Cl)cc2n2cnnc12)c1ccccc1 (configuration not stated),,inactive: 31.2%
S=c1[nH]nc(COc2ccccc2)n1/N=C/c1ccco1,active: 7.94 µM,
C[C@@H]1C(=O)O[C@@H]1[C@@H](C)CO[Si](c1ccccc1)(c1ccccc1)C(C)(C)C,,inactive: -23.2%

Compound,Potency,"activity change, negative = inhibition"
CCn1c(C(c2ccccc2)c2ccccc2)n[nH]c1=S,"inconclusive: 0.141 µM [inhibitor, full curve]",
CN1CCN(C(=O)c2ccc3c(c2)N(C)C(=O)/C(=C/c2cccc(Cl)c2)S3)CC1,"inconclusive: 35.5 µM [inhibitor, single point]",
COc1ccc(CCNC(=O)CCCn2c(SCC(N)=O)nc3cc4c(cc3c2=O)OCO4)cc1OC,,inactive: -16.1%
CN(C)C(=O)N1CCC(C(=O)N2CCCC(C(=O)c3ccc(C(C)(C)C)cc3)C2)CC1 (configuration not stated),"inconclusive: 10 µM [activator, partial curve]",
O=c1[nH]c(Cc2cccs2)nc2scc(-c3ccc(Cl)cc3)c12,"inconclusive: 10 µM [activator, partial curve]",
N#CC1=C2SCC(O)(c3ccccc3)N2C(=O)CC1c1cccs1 (configuration not stated),"inconclusive: 35.5 µM [inhibitor, single point]",
COc1ccc(NC(=O)c2ccccc2NC(=O)CSc2ccccc2)cc1,"inconclusive: 5.62 µM [activator, single point]",
COc1cc(/C=N/Nc2ccccn2)ccc1OCC(C)C,"inconclusive: 25.1 µM [inhibitor, single point]",
CCOC(=O)c1c(NC(=O)CSc2nnc(-c3c[nH]c4ccccc34)n2C)sc2c1CCCC2,"inconclusive: 12.6 µM [activator, partial curve]",
CC(C)(C)C(=O)N1CCN(c2nc3ccc(Cl)cc3s2)CC1,,inactive: 36.3%
CCOC(=O)C1=C(C)N(c2ccc(Cl)cc2)C(=O)NC1c1cccc([N+](=O)[O-])c1 (configuration not stated),"inconclusive: 35.5 µM [activator, single point]",
N=C1/C(=C\c2ccc(OC(=O)c3ccccc3Cl)cc2)C(=O)N=C2SC(N3CCOCC3)=NN12,,inactive: -44.1%
S=C(NCCOCCOCCNC(=S)Nc1ccccc1)Nc1ccccc1,active: 5.01 µM,
COc1ccc2c(c1)c(/C=C/c1cc[n+](C)cc1)cn2C,,inactive: 23.4%
CC(C)=CC(=O)OCc1cc([N+](=O)[O-])cc2c1OCOC2,"inconclusive: 3.98 µM [activator, full curve]",
CCn1c(SCC(=O)Nc2ccc(C(C)=O)cc2)nc2c([nH]c3ccccc32)c1=O,"inconclusive: 15.8 µM [inhibitor, single point]",
Nc1nnc(CC(=O)N/N=C/c2ccccc2OCc2ccccc2F)s1,,inactive: 13.9%
COC(=O)c1ccc2c(c1)c(I)c(-c1ccc(OC)cc1)n2C,"inconclusive: 17.8 µM [activator, partial curve]",
O=C(CNC(=O)C(c1ccccc1)c1ccccc1)N/N=C\c1ccc(C(=O)O)cc1,,inactive: 0.863%
C[C@@H](C(=O)Nc1ccc2ccccc2c1)[C@@H]1C[C@@]1(C)[C@@H](NC(=O)c1cccnc1)c1ccccc1,"inconclusive: 11.2 µM [activator, partial curve, poor fit] and inconclusive: 20 µM [activator, partial curve]",
CCN(CC)C(=O)N1CCC(NC(=O)c2ccc(C(C)(C)C)cc2)CC1,"inconclusive: 10 µM [activator, partial curve]",
CCOc1ccc(-c2cc3nc(C4CCN(C(=O)OC(C)(C)C)CC4)c(C(=O)O)cn3n2)cc1,"inconclusive: 12.6 µM [activator, partial curve]",
CCOC(=S)SCC(=O)Nc1nc(-c2ccccc2)cs1,"inconclusive: 3.98 µM [inhibitor, partial curve, poor fit]",
Cc1cc(C(=O)NNC(=S)NCC2CCCO2)cs1 (configuration not stated),"inconclusive: 22.4 µM [inhibitor, partial curve, poor fit]",

# In a second layout: three of the compounds above.
Compound	Potency	activity change, negative = inhibition
COc1ccc2c(c1)c(/C=C/c1cc[n+](C)cc1)cn2C		inactive: 23.4%
CCn1c(SCC(=O)Nc2ccc(C(C)=O)cc2)nc2c([nH]c3ccccc32)c1=O	inconclusive: 15.8 µM [inhibitor, single point]	
CCN(CC)C(=O)N1CCC(NC(=O)c2ccc(C(C)(C)C)cc2)CC1	inconclusive: 10 µM [activator, partial curve]	

# Not a retest: two of the compounds above.
Compound,Potency,"activity change, negative = inhibition"
O=C(Nc1ccc(F)cc1F)c1cccc(C(=O)Nc2ccc(F)cc2F)n1,"inconclusive: 8.91 µM [inhibitor, partial curve]",
CC(C(=O)Nc1ccc(N2CCOCC2)cc1)N1C(=O)c2ccccc2C1=O (configuration not stated),,inactive: -0.904%
